# Measured values as given in publication PMC10626543.
# By UniProt entry, the sequences of proteins in these tests, tags left out. Residues count along the entry.
# UniProt P48678, residues 1-647: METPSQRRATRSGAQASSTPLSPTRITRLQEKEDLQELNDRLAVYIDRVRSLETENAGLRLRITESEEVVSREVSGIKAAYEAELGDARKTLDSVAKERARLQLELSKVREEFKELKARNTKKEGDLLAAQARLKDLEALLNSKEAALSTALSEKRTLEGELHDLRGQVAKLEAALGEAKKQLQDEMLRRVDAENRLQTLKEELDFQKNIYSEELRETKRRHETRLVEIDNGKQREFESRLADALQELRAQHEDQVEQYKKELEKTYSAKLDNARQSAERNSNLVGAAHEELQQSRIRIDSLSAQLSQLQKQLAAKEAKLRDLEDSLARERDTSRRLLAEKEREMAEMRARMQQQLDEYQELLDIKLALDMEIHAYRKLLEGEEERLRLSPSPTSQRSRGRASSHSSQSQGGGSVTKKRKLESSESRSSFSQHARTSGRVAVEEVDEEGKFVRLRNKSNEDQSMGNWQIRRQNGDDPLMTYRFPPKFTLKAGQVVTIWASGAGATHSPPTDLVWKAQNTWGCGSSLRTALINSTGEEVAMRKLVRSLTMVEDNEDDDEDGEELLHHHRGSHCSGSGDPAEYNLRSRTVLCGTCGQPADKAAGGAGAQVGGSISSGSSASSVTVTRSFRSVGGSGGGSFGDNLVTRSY
# These are yes or no findings as the source states them, for the method shown. Binding seen in cells or lysates may run through a third protein. A yes stands for co-enrichment or nearness to the bait. Other partners may have been found.
# B1: Pygb (glycogen phosphorylase, brain isoform) (protein, UniProt Q8CI94 1-843)
# chain: MAKPLTDSERQKQISVRGIAGLGDVAEVRKSFNRHLHFTLVKDRNVATPRDYFFALAHTVRDHLVGRWIRTQQHYYERDPKRIYYLSLEFYMGRTLQNTMVNLGLQTACDEATYQLGLDLEELEEIEEDAGLGNGGLGRLAACFLDSMATLGLAAYGYGIRYEFGIFNQKIVNGWQVEEADDWLRYGNPWEKARPEYMLPVHFYGRVEHTPDGVLWLDTQVVLAMPYDTPVPGYKNNTVNTMRLWSAKAPNDFKLKDFNVGDYIEAVLDRNLAENISRVLYPNDNFFEGKELRLKQEYFVVAATLQDIIRRFKSSRFGCRDPVRTCFETFPDKVAIQLNDTHPALSIPELMRILVDVEKVDWDKAWEITKKTCAYTNHTVLPEALERWPVSMFEKLLPRHLEIIYAINQRHLDHVAALFPGDVDRLRRMSVIEEGDCKRINMAHLCVIGSHAVNGVARIHSEIVKQSVFKDFYELEPEKFQNKTNGITPRRWLLLCNPGLAEIIVERIGEGFLTDLSQLKKLLSLVDDEAFIRDVAKVKQENKLKFSAQLEKEYKVKINPASMFDVHVKRIHEYKRQLLNCLHIITLYNRIKKDPAKAFVPRTVMIGGKAAPGYHMAKMIIKLVTSIGDVVNHDPVVGDRLRVIFLENYRVSLAEKVIPAADLSQQISTAGTEASGTGNMKFMLNGALTIGTMDGANVEMAEEAGEENLFIFGMRVEDVEALDQKGYNAREFYERLPELRQAVDQISSGFFSPKDPDCFKDVVNMLMYHDRFKVFADYEAYIQCQAQVDRLYRNSKEWTKKVIRNIACSGKFSSDRTITEYAREIWGVEPSDLQIPPPNLPKD
# B2: Gins3 (mouse) (protein, UniProt Q9CY94 1-216)
# chain: MSEAYFPVESGALGPEENFLSLDDILMSQEKLPVRVETPMPRLGAFFLERGAGSEPDHPLPQGTKLELPLWLAKGLFDHKRRILSVELPKMYQEGWRTVFSADANVVDLHKMGPHFYGFGSQLLHFDSPENADISQSLLKTFIGRFRRIMDSSQNSYNEDTSALVARLDETERGLFQIGQRSLNDFQSWEKGQASQITASSLVQNYKKRKFTNMED
# B3: EH domain-containing protein 2 (protein, UniProt Q8BH64 1-543)
# chain: MFSWLKKGGARGQRPEAIRTVTSSLKELYRTKLLPLEEHYRFGSFHSPALEDADFDGKPMVLVAGQYSTGKTSFIQYLLEQEVPGSRVGPEPTTDCFVAVMHGETEGTVPGNALVVDPEKPFRKLNPFGNTFLNRFMCAQLPNQVLESISIIDTPGILSGAKQRVSRGYDFPAVLRWFAERVDLIILLFDAHKLEISDEFSEAIGALRGHEDKIRVVLNKADMVETQQLMRVYGALMWALGKVVGTPEVLRVYIGSFWSQPLLVPDNRRLFELEEQDLFRDIQGLPRHAALRKLNDLVKRARLVRVHAYIISYLKKEMPTVFGKENKKKQLILKLPVIFAKIQLEHHISPGDFPDCQKMQELLMAHDFTKFHSLKPKLLEALDDMLAQDIAKLMPLLRQEELESVEAGVQGGAFEGTRMGPFVERGPDEAIEDGEEGSEDDAEWVVTKDKSKYDEIFYNLAPADGKLSGSKAKTWMVGTKLPNSVLGRIWKLSDVDRDGMLDDEEFALASHLIEAKLEGHGLPTNLPRRLVPPSKRRQKGSAE
# B4: Cullin-associated NEDD8-dissociated protein 2 (protein, UniProt Q6ZQ73 1-1235)
# chain: MSTGAFYISSLLEKMTSSDKDFRFMATSDLMSELQKDSIQLDEDSERKVVRTLLRLLEDRSGEVQNLAVKCLGPLVGKVKEYQVENIVDTLCANMRSDKEQLRDIAGIGLKTVLSELPPAATGSGLAINVCRKITGQLTSAIAQQEDVAVQLEALDILSDMLSRLGAPLGTFHASLLHCLLPQLSSPRLAVRKRTVVALGHLAAACSTDLFVELADHLVDRLPGPRAPASPAAIRTLIQCLGSVGRQAGHRLGAHLDRLVPMVEEFCNLDDDELRESCLQAFEAFLRKCPKEMDPHVPNVTSLCLQYMKHDPNYDHDSDDEEQMETEDSEFSEQESEDEYSDDDDMSWKVRRAAAKCMAALISSRPDLLPDFHCTLAPALIRRFKEREENVKADIFGAYIMLLRHTRPPKGWLEAVEEPTQTGRNLNMLRAQVPLVIKALQRQLKDRNVRTRQGCFNLFTELAGVLPGSLAEHMAVLVSGIVFSLADYSSSSTIRMDALAFLQGLLGTEPAEAFHPHLPTLLPPVMACVADPFYKVAAEALLVLQELVRTLWPLDRPRLLDPEPYVGEMSTATLARLRATDLDQEVKERAISCVGHLVGHLGDRLGDDLEPTLMLLLDRLRNEITRLPAVKALTLVAMSPLRLDLQPILAEALPILASFLRKNQRALRLATLAALDALAQSQGLGLPPPAVRTVLTELPALVSENDMHVAQLAVDFLTTVTQTQPSSLVEVSGPVLGELLQLLHSPLLPAGVLAATEGFLQALVGTRPPCVEYSELISLLTAPVYNQVGDGGPGLHKQVFHSLARCVAALSAACPQEAAGTASRLVCDAKSPHSSTGVKVLAFLSLAEVGQVAGPGPQRELKTVLLEALGSPSEDVRAAAAYALGRVGAGNLPDFLPFLLAQIEAQPRRQYLLLHALREALGAAQPDNLKPYVEDVWALLFQRCESPEEGTRCVVAECIGKLVFVNPPYLLPRFRKQLAAGQPYTRSTVITAVKFLISDQPHSIDPLLKSFIAEFMESLQDPDLNVRRATLTFFNSAVHNKPSLVRDLLDDILPLLYQETKIRRDLIREVEMGPFKHTVDDGLDVRKAAFECMYSLLESCLGQLDMCEFLNHVEDGLKDHYDIRMLTFIMLARLATLCPAPVLQRVDRLIEPLRATCTAKVKAGSVKQELEKQEELKRSAMRAVAALLTNPEVRKSPTVADFSAQIRSNPELTTLFESIQKDTASGPSTDSMELS
# B5: Myl6 (myosin light chain 6) (protein, UniProt Q60605 1-151)
# chain: MCDFTEDQTAEFKEAFQLFDRTGDGKILYSQCGDVMRALGQNPTNAEVLKVLGNPKSDEMNVKVLDFEHFLPMLQTVAKNKDQGTYEDYVEGLRVFDKEGNGTVMGAEIRHVLVTLGEKMTEEEVEMLVAGHEDSNGCINYEAFVRHILSG
# B6: Cpt1B (carnitine O-palmitoyltransferase 1) (protein, UniProt Q924X2 1-772)
# chain: MAEAHQAVAFQFTVTPDGVDFRLSREALRHIYLSGINSWKKRLIRIKNGILRGVYPGSPTSWLVVVMATVGSNYCKVDISMGLVDCIQRCLPERYGHFGTPQTEALLSMVIFSTGVWATGIFFFRQTLKLLLSYHGWMFEMHSKTSHATKIWAICVRLLSSRRPMLYSFQTSLPKLPVPSVPATIHRYLDSVRPLLDDEAYYRMETLAKEFQDKTAPRLQKYLVLKSWWATNYVSDWWEEYVYLRSRSPLMVNSNYYAMDFVLIKNTNVQAARLGNAVHAMIMYRRKLDREEIKPVMALGMVPMCSYQMERMFNTTRIPGKETDLLQHLSESRHVAVYHKGRFFKVWLYEGSRLLKPRDLEMQFQRILDDPSPPQPGEEKLAALTAGGRVEWAEARQTFFSSGKNKMSLDAIERAAFFVTLDEDSHCYNPDDETSLSLYGKALLHGNCYNRWFDKSFTLISCKNGLLGLNTEHSWADAPIIGHLWEFVLGTDTFHLGYTETGHCVGEPNTTLPPPQRLPWDIPEQCREAIENSYQVAKALADDVELYCFQFLPFGKGLIKKCRTSPDAFVQIALQLAHFRDKGKFCLTYEASMTRMFREGRTETVRSCTNESAAFVQAMMKGSHKKQDLQDLFRKASEKHQNMYRLAMTGAGIDRHLFCLYIVSKYLGVSSPFLAEVLSEPWSLSTSQIPQFQICMFDPKQYPNHLGAGGGFGPVADDGYGVSYMIAGENTMFFHISSKYSSSETNAQRFGNHIRQALLDIAELFKISKTDS
# B7: Sorbin and SH3 domain-containing protein 1 (protein, UniProt Q62417 1-1290)
# chain: MSSECDVGSSKAVVNGLASGNHGPDKDMDPTKICTGKGTVTLRASSSYRGTPSSSPVSPQESPKHESKSGLEPEDPSADEWKLSSSADTNGNAQPSPLAAKGYRSVHPSLSADKPQGSPLLNEVSSSHIETDSQDFPPTSRPSSAYPSTTIVNPTIVLLQHNRDPASERRAGEQDPVPTPAELTSPGRASERRAKDASRRVVRSAQDLSDVSTDEVGIPLRNTERSKDWYKTMFKQIHKLNRDDDSDVHSPRYSFSDDTKSPLSVPRSKSEMNYIEGEKVVKRSATLPLPARSSSLKSSPERNDWEPLDKKVDTRKYRAEPKSIYEYQPGKSSVLTNEKMSRDISPEEIDLKNEPWYKFFSELEFGRPTNLEKDLSFCQAELEADLEKVETVNKSPSANSPQSSAVSPTPDITSEPPGYIYSSNFHAVKRESDGTPGGLASLENERQIYKSVLEGGDIPLQGLSGLKRPSSSASTKVDRKGGNAHMISSSSVHSRTFHTSNALGPGCKHKKPLSAAKACISEILPSKFKPRLSAPSALLQEQKSVLLPSEKAQSCENLCVSLNDSKRGLPLRVGGSIENLLMRSRRDYDSKSSSTMSLQEYGTSSRRPCPLSRKAGLHFSMFYRDMHQINRAGLSLGSISSSSVRDLASHFERSSLTLARGELGASQEGSEHIPKHTVSSRITAFEQLIQRSRSMPSLDFSGRLSKSPTPVLSRSGLTSARSAESLLESTKLRPREMDGMDSGGVYASPTCSNMADHALSFRSLVPSEPLSICSDELDHCSNVSNDSREGSGGSVHGDFPKHRLNKCKGTCPASYTRFTTIRKHEQQSSRQSDWRSDSRGDKNSLLRNIHLMSPLPFRLKKPLQQHPRQPPPSDSSESPAGQKADLPCHDPQDQPHSAGKPQVPTRLSSRHTMARLSHNSEPPLDRPAGLEDCTRAINNGNPVPYSDHGLDRNNNPQSELAAAHGDSESPRHFIPADYLESTEEFIRRRHDDKEKLLADQRRLKREQEEADIAARRHTGVIPTHHQFITNERFGDLLNIDDTAKRKSGLEMRPARAKFDFKAQTLKELPLQKGDVVYIYRQIDQNWYEGEHHGRVGIFPRTYIELLPPAEKAQPRKLAPVQVLEYGEAIAKFNFNGDTQVEMSFRKGERITLLRQVDENWYEGRIPGTSRQGIFPITYVDVLKRPLVKTPVDYIDLPYSSSPSRSATVSPQQPQAQQRRVTPDRSQPSLDLCSYQALYSYVPQNDDELELRDGDIVDVMEKCDDGWFVGTSRRTRQFGTFPGNYVKPLYL
# B8: HHATL (protein-cysteine N-palmitoyltransferase HHAT-like protein) (protein, UniProt Q9D1G3 1-503)
# chain: MGIKTALPAAELGLYSLVLSGALAYAGRGLLEASQDGAHRKAFRESVRPGWEYLGRKMDVADFEWVMWFTNFRNVIVFALSGHVLFAKLCTMVAPQLRSWMYAVYGVLAVVGTMGPWYLLLLLGHCMVLYVASLLGQRWLCLALGLASLASFKVDPGISWQSGFVTGTFDLQDVLFHGGSSFTVLRCTSFALESCAHPDRRYSLADLLKYNFYLPFFFFGPIMTFDRFHAQVSQEPVRPEGELWHIQAQAGLSAAAIVAVDVFFHFFYILTIPSDLKFASRLPDSALAGLAYSNLVYDWVKAAVLFGVVNTVARLDHLDPPQPPKCITALYVFGETHFDRGINDWLCKYVYDHIGGDHSTVIPELAASVATFVVTTLWLGPCDIVYLWSVLNCFGLNFELWVQKLAERGPLAQIEARLSEQMSRRVRALCGAVNFWAIIMYNLVSLNSLEFTELVARRLILTGFPQTTLAVLFVTYCGVQLVKERERSLALEEEQRQDREKLE
# B9: ADP/ATP translocase 2 (protein, UniProt P51881 1-298)
# chain: MTDAAVSFAKDFLAGGVAAAISKTAVAPIERVKLLLQVQHASKQITADKQYKGIIDCVVRIPKEQGVLSFWRGNLANVIRYFPTQALNFAFKDKYKQIFLGGVDKRTQFWRYFAGNLASGGAAGATSLCFVYPLDFARTRLAADVGKAGAEREFKGLGDCLVKIYKSDGIKGLYQGFNVSVQGIIIYRAAYFGIYDTAKGMLPDPKNTHIFISWMIAQSVTAVAGLTSYPFDTVRRRMMMQSGRKGTDIMYTGTLDCWRKIARDEGSKAFFKGAWSNVLRGMGGAFVLVLYDEIKKYT
# Biological target: native lamin A/C (mouse (endogenous in heart, skeletal muscle and brain)) (UniProt P48678)
# Test: affinity purification with mass spectrometry; native lamin A/C immunoprecipitated with mAb 4C11 and Protein G Sepharose from sonicated heart lysates of old IL10-KO and control C57Bl/6 female mice (five each); 50 mM Tris pH 7.4, 300 mM NaCl, 0.3% Triton X-100, 4°C; TMT 10-plex
row,binding,Binder
1,binds,B1
2,binds,B2
3,binds,B3
4,binds,B4
5,binds,B5
6,binds,B6
7,binds,B7
8,binds,B8
9,binds,B9
